Literature values, collected in patent US20060104952A1, “Genomic barrier to viral disease” (priority 2004, published 2006).
For at least one compound, name, drawing or mass did not settle the structure.

System: genes

CC1=C(/C=C/C(C)=C/C=C/C(C)=C/C(=O)O)C(C)(C)CCC1 [retinoic acid]
number of genes directly or indirectly regulated: over 530 genes
